Test results taken from PubChem BioAssay AID493014 (National Center for Advancing Translational Sciences (NCATS), 2011).
Hit rate of the full screen: of about 340,000 compounds, about 170 (0.05%) were called active. The shares of active, inactive and inconclusive entries below differ from those in the screen. Calls come from the whole dose curve; as a rule, active = well fitted inhibition curve with a large enough effect in the signal ratio, with a control signal flat (not every such curve was filed as active); inconclusive = small, poorly fitted or top-dose-only effect, or effect the other way, or a change in a side signal; inactive = flat fitted curve, though single readings scatter; the % refers to the signal ratio. Potencies beside an inconclusive call are fits to weak or partial responses and may not hold up.

assay: qHTS Assay to Find Inhibitors of Chronic Active B-Cell Receptor Signaling; settings: ABC-DLBCL IkBa-CBG/CBR reporter, luminescence ratio (green luciferase fused to IkBa over red control in TMD8 lymphoma cells), 4 h; activity change, negative = inhibition: at 46.1 µM (top of the series) unless noted;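 for activity change, negative = inhibition: plate controls were basal doxycycline-induced cells for no effect and cells given 10 µM MG132 for full effect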
In short: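 Doxycycline induced both beetle luciferases in TMD8 lymphoma cells; IKK-driven degradation limits the IkappaBalpha-fused green signal, while red luminescence normalises for cell number and nonspecific effects. Compounds tested up to 46 uM, 4 hrs.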
Potency is the fitted concentration of half-maximal effect.

Structure (SMILES)	activity change, negative = inhibition	Potency
O=C(c1ccc(Cl)c(S(=O)(=O)N2CCCCCC2)c1)N1CCN(c2ccccc2O)CC1	inactive	
CCOC(=O)c1c(/N=C/c2cc(C)ccc2O)sc2c1CCN(C)C2	inconclusive: -24.9%	
COc1ccccc1CN1CC(C(=O)NCc2ccc(C)c(F)c2)CCC1=O (stereo not drawn)	inactive	
Cc1ccc(NC(=O)c2nc[nH]c2C(=O)N2CCN(c3ccccc3)CC2)cc1	inconclusive: -4.52%	
COc1ccc2c(c1)cc1n2CCN=C1NN	inconclusive: 3.59%	
CCOC(=O)c1ccc(N2N=C(C)/C(=C/C=C/c3ccco3)C2=O)cc1	inconclusive: -18.4%	
CCc1ccccc1NC(=O)CN(C)Cc1c(O)ccc2ccccc12	inactive	
Oc1ccc(-c2cn3c(n2)SCC3)cc1O	inactive	
CN(C)CCn1c2c(c(SCC(=O)Nc3cccc(C(F)(F)F)c3)nc1=O)CCCC2	inconclusive: -4.78%	
O=S(=O)(N/N=C/c1ccccc1OCc1ccc(Cl)cc1)c1ccccc1	inconclusive: -16.4%	
CCOC(=O)c1cc2c(=O)n3ccccc3nc2n(Cc2ccco2)c1=NC(=O)c1cccc(Br)c1	inconclusive: 24%	
CCN(CC)CCNCc1ccc(-c2ccc(Cl)cc2)o1	inconclusive: -5.82%	
Cn1cc(Br)c(NC(=O)/C=C/C(=O)O)n1	inactive	
O=C(c1cn(-c2ccccc2)nc1-c1cccs1)N1CCN(c2ccccc2)CC1	inactive	
CCOc1ccc(NC(=O)c2ccc(OC)cc2)cc1		inconclusive: 2.24 µM [falling, full curve, poor fit]
O=C(Nc1ccc(C(=O)O)cc1)/C(=C\C=C\c1ccccc1)NC(=O)c1ccccc1Br		inconclusive: 22.4 µM [falling, single point]
COC(=O)c1sccc1NC(=O)Nc1cccc(OC)c1		inconclusive: 6.31 µM [falling, partial curve]
O=S(=O)(NCCc1csc2nc(-c3ccccc3)nn12)c1ccc(Oc2ccccc2)cc1	inactive	
CN(C)c1ccc(CNC(=O)c2ccc(CNc3c(N4CCCCC4)c(=O)c3=O)cc2)cc1	inconclusive: 11.5%	
CCOC(=O)c1c(NC(=O)c2cc3n(n2)C(C(F)(F)F)CC(c2cccs2)N3)sc(C)c1C (stereo not drawn)	inactive	
CC(C)c1nc2ccc(C(=O)O)cc2[nH]1		inconclusive: 9.2 µM [falling, partial curve, poor fit]
O=C(CSc1ccccn1)N/N=C/C=C/c1ccccc1	inconclusive: -16.8%	
CCOc1ccc(C2CC(c3ccc(OC)c(OC)c3)n3nc(N)nc3N2)cc1 (stereo not drawn)	inactive	
NC(=O)NC(=O)C(c1ccccc1)N1CCN(S(=O)(=O)c2ccc(Br)s2)CC1 (stereo not drawn)		inconclusive: 23.1 µM [falling, single point]
CCOC(=O)/C=c1\s/c(=C\c2ccccc2C)c(=O)n1CC(=O)NCc1ccc2c(c1)OCO2	inconclusive: -14.7%	
Cc1cccc(OCc2nnc(SCCC(=O)O)n2-c2ccccc2)c1	inconclusive: 16.4%	

Structure (SMILES)	activity change, negative = inhibition	Potency
CC(C)CCCN1C(Nc2ccccc2)=NC[C@@H]1Cc1ccccc1		inconclusive: 22.4 µM [falling, partial curve, poor fit]
COc1cc(C2C(C(=O)Nc3ccccc3C)=C(C)Nc3nc(SCc4cc(C)ccc4C)nn32)ccc1O (stereo not drawn)		inconclusive: 15.8 µM [falling, single point]
COc1cc2c(cc1OC)C(c1cc(Br)ccc1F)N(C(=O)CCl)CC2 (stereo not drawn)		inconclusive: 35.5 µM [falling, single point]
O=C(NCC(=O)N1CCN(c2ccccc2O)CC1)c1ccc2c(c1)OCO2	inactive	
Cc1ccc(-c2n[nH]c(=S)n2-c2ccccc2)cc1	inactive	
CN(c1ccc(OCC(=O)N2CCOCC2)cc1)S(=O)(=O)c1ccc(Cl)cc1		inconclusive: 3.16 µM [falling, partial curve, poor fit]
CCNC(=S)N/N=C/c1ccc(C#N)cc1	inactive	
O=C(NCc1ccco1)C1c2ccccc2Oc2ccccc21	inconclusive: -0.0675%	
CN(C)c1ccc(P(=O)(CC(=O)N/N=C/c2ccc(C#N)cc2)OCCCl)cc1 (stereo not drawn)	inactive	
COc1ccc2c(c1)C(=O)C(=O)N2CCS(=O)(=O)c1ccccc1		inconclusive: 35.5 µM [falling, single point]
CCOC(=O)c1[nH]c(C)c(C(=O)/C=C/c2ccc(C(=O)O)cc2)c1C	inconclusive: -17.2%	
COc1ccc(/C(O)=C/C(=O)C(=O)Nc2c(C)n(C)n(-c3ccccc3)c2=O)cc1	inactive	
CCCCc1nc(Cl)c(C#N)c2c1CSC(C)(C)C2		inconclusive: 4.61 µM [rising, full curve, poor fit]
CC(C)(O)CC[C@@H](O)[C@](C)(O)C1CC[C@@]2(O)C3=CC(=O)[C@]4(O)C[C@@H](O)[C@@H](O)C[C@]4(C)C3CC[C@]12C (stereo partly drawn)	inconclusive: -1.24%	
Cc1ccc(NC(=O)C2CC(=O)N(c3ccc4c(c3)OCCO4)C2)cc1S(=O)(=O)N1CCCCCC1 (stereo not drawn)	inconclusive: -11.6%	
COCCCN1C(=O)C(=O)/C(=C(/O)c2ccc(S(=O)(=O)N3CCOCC3)cc2)C1c1cccc(Cl)c1 (stereo not drawn)	inactive	
CCCCn1cnc2c(c(-c3ccccc3)c(-c3ccccc3)n2Cc2ccco2)c1=N	inconclusive: -20.9%	
N#Cc1c(N2CCN(C(=O)c3ccccc3)CC2)nc(-c2ccccc2)c2c1CCCC2	inconclusive: -11.5%	
Cc1cc(-c2csc3nc[nH]c(=S)c23)cc(C)c1C	inactive	
COc1ccc(-c2nc3c(c(SCC(=O)N4CCOCC4)n2)Cc2c(CO)cnc(C)c2O3)cc1		inconclusive: 15.8 µM [falling, single point]
CC1CCc2c(sc(NC(=O)CSc3nc(N)cc(=O)[nH]3)c2C(N)=O)C1 (stereo not drawn)		inconclusive: 14.6 µM [falling, partial curve]
Cc1cc(C(=O)OCC(=O)N2CC(=O)Nc3ccccc32)c(C)n1-c1ccc(F)cc1		inconclusive: 29.1 µM [falling, single point]
O=[N+]([O-])c1ccc(NCCNCCOc2nonc2-c2ccccc2)c([N+](=O)[O-])c1	inactive	
N#CCO/N=C/C(=O)Nc1ccc(F)cc1F	inconclusive: -14.7%	
O=C(CSCCO)Nc1cccc(C(F)(F)F)c1	inactive	
COc1ccc(Nc2nc(N)nc(CCl)n2)cc1		inconclusive: 35.5 µM [falling, single point]

Part of the list above, bar-delimited.
Structure (SMILES) | activity change, negative = inhibition | Potency
Cc1ccc(NC(=O)c2nc[nH]c2C(=O)N2CCN(c3ccccc3)CC2)cc1 | inconclusive: -4.52% | 
COc1ccc2c(c1)cc1n2CCN=C1NN | inconclusive: 3.59% | 
CCOC(=O)c1ccc(N2N=C(C)/C(=C/C=C/c3ccco3)C2=O)cc1 | inconclusive: -18.4% | 
Oc1ccc(-c2cn3c(n2)SCC3)cc1O | inactive | 
CN(C)CCn1c2c(c(SCC(=O)Nc3cccc(C(F)(F)F)c3)nc1=O)CCCC2 | inconclusive: -4.78% | 
O=S(=O)(N/N=C/c1ccccc1OCc1ccc(Cl)cc1)c1ccccc1 | inconclusive: -16.4% | 
CC(C)c1nc2ccc(C(=O)O)cc2[nH]1 |  | inconclusive: 9.2 µM [falling, partial curve, poor fit]
O=C(CSc1ccccn1)N/N=C/C=C/c1ccccc1 | inconclusive: -16.8% | 
CCOc1ccc(C2CC(c3ccc(OC)c(OC)c3)n3nc(N)nc3N2)cc1 (stereo not drawn) | inactive | 
CCOC(=O)/C=c1\s/c(=C\c2ccccc2C)c(=O)n1CC(=O)NCc1ccc2c(c1)OCO2 | inconclusive: -14.7% | 
Cc1cccc(OCc2nnc(SCCC(=O)O)n2-c2ccccc2)c1 | inconclusive: 16.4% | 
CC(C)CCCN1C(Nc2ccccc2)=NC[C@@H]1Cc1ccccc1 |  | inconclusive: 22.4 µM [falling, partial curve, poor fit]
Cc1ccc(-c2n[nH]c(=S)n2-c2ccccc2)cc1 | inactive | 
O=C(NCc1ccco1)C1c2ccccc2Oc2ccccc21 | inconclusive: -0.0675% | 
COc1ccc2c(c1)C(=O)C(=O)N2CCS(=O)(=O)c1ccccc1 |  | inconclusive: 35.5 µM [falling, single point]
CCOC(=O)c1[nH]c(C)c(C(=O)/C=C/c2ccc(C(=O)O)cc2)c1C | inconclusive: -17.2% | 
CCCCc1nc(Cl)c(C#N)c2c1CSC(C)(C)C2 |  | inconclusive: 4.61 µM [rising, full curve, poor fit]
CC(C)(O)CC[C@@H](O)[C@](C)(O)C1CC[C@@]2(O)C3=CC(=O)[C@]4(O)C[C@@H](O)[C@@H](O)C[C@]4(C)C3CC[C@]12C (stereo partly drawn) | inconclusive: -1.24% | 
Cc1ccc(NC(=O)C2CC(=O)N(c3ccc4c(c3)OCCO4)C2)cc1S(=O)(=O)N1CCCCCC1 (stereo not drawn) | inconclusive: -11.6% | 
N#Cc1c(N2CCN(C(=O)c3ccccc3)CC2)nc(-c2ccccc2)c2c1CCCC2 | inconclusive: -11.5% | 
COc1ccc(-c2nc3c(c(SCC(=O)N4CCOCC4)n2)Cc2c(CO)cnc(C)c2O3)cc1 |  | inconclusive: 15.8 µM [falling, single point]
Cc1cc(C(=O)OCC(=O)N2CC(=O)Nc3ccccc32)c(C)n1-c1ccc(F)cc1 |  | inconclusive: 29.1 µM [falling, single point]
O=C(CSCCO)Nc1cccc(C(F)(F)F)c1 | inactive | 

(listing goes on)

Structure (SMILES)	activity change, negative = inhibition	Potency
COc1ccccc1NC(=O)Cn1ncc2c1-c1ccccc1OC2		inconclusive: 14.6 µM [falling, single point]
COc1ccc(-c2nn(-c3ccccc3)cc2C(=O)Nc2nccs2)cc1OC	inconclusive: 7.23%	
O=C1C=C(c2cccc3c2sc2ccccc23)C[C@@H](c2ccc(F)cc2)C1	inconclusive: 7.7%	
CCOC(=O)N/N=C/C=C/c1ccccc1		inconclusive: 23.1 µM [falling, single point]
CC1CCCCN1CCCNc1ccc(C(CC(N)=O)NC(=O)Cc2cccc3ccccc23)cc1[N+](=O)[O-] (stereo not drawn)	inconclusive: 9.96%	
CC(=O)c1ccc(NC(=S)Nc2cccc3ccccc23)cc1	inconclusive: -5.79%	
O=C(N/N=C/c1cccc(OC(=O)c2ccco2)c1)c1ccc(F)cc1	inconclusive: -0.694%	
O=C1N=C(N2CCOCC2)S/C1=C/c1cc2c(cc1[N+](=O)[O-])OCO2		inconclusive: 10 µM [falling, partial curve]
Cc1cnc([N+](=O)[O-])n1CCOC(=O)NC(=O)c1ccc(F)cc1	inactive	
CNC(=O)CSc1nnc(-c2ccc(S(=O)(=O)N3CCCC3)cc2)n1-c1cccc(C)c1C	inconclusive: -1.68%	
C/C(=N/Nc1nc(-c2ccccc2)cc(-c2ccccc2)n1)c1ccc(N)cc1	inconclusive: 15.3%	
COc1ccc(S(=O)(=O)Cc2ccc(C(=O)NCCc3ccc(S(N)(=O)=O)cc3)o2)cc1	inactive	
COc1cc(C(=O)N2CCN(c3cccc(C)c3C)CC2)cc(OC)c1OC		inconclusive: 13 µM [falling, partial curve, poor fit]
COc1ccc(NS(=O)(=O)c2cc(NC(=O)c3ccc(C)s3)ccc2N2CCOCC2)cc1	inconclusive: 5.96%	
COc1ccc(C(=O)N/N=C(\C)CC(=O)Nc2ccccn2)cc1OC	inconclusive: -22.6%	
O=C1NC(c2ccccc2)C(C(=O)c2cccs2)=C1O (stereo not drawn)		inconclusive: 13 µM [falling, partial curve]
COCCNC(=O)c1cn(Cc2c(F)cccc2Cl)nn1	inconclusive: 8.95%	
COc1ccc(S(=O)(=O)Nc2c(C)cccc2C)cc1-n1cnnn1	inconclusive: -14.3%	
COc1ccc(NC(=O)c2cccs2)cc1		inconclusive: 32.6 µM [falling, single point]
O=C(NCCNS(=O)(=O)c1ccccc1)c1cc(OCC(F)(F)F)ccc1OCC(F)(F)F	inconclusive: -3.44%	
COc1ccc(C)c2sc(=NC(=O)c3ccccc3)n(C)c12	inconclusive: 20.6%	
CCc1nonc1NC(=O)c1oc2cc(C)c(C)cc2c1C	inconclusive: 5.92%	
O=C(C1CCC(CNc2c(N3CCCCC3)c(=O)c2=O)CC1)N1CCc2ccccc2C1 (stereo not drawn)	inactive	
Cc1c(Cl)cccc1NC(=O)c1oc2ccc(S(=O)(=O)N3CCC4(CC3)OCCO4)cc2c1C	inactive	
COc1ccccc1C(=O)NNC(=O)c1ccccc1F		inconclusive: 6.51 µM [falling, single point]
Cc1nn(-c2ccccc2)c(N2CCCC2)c1/C=N/NC(=O)c1cc(-c2ccccc2)nc2ccccc12	inactive	
